Measurements published in PubChem BioAssay AID1487 (National Center for Advancing Translational Sciences (NCATS), 2009).
The list shows a part of the results. The main result of the screen is listed elsewhere. These columns were measured beside it and carry no call. Compounds called inactive in the main read-out are mostly missing here. Potencies come from curve fits of mixed quality, noted in brackets.

Experiment: qHTS Assay for Modulators of Lamin A Splicing
Details: HeLa LMNA splicing GFP/RFP minigene ratio, 48 h
In short: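 Read-out is the ratio of GFP to DsRed2 object intensity, acquired by 488 nm laser-scanning cytometry on HeLa lamin A-EGFP minigene reporter cells. Compound incubation 48 hrs at 37 °C in Opti-MEM with 2% FBS; DMSO 0.5% final.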

[1] = measured here: GFP splicing reporter channel
[2] = measured here: RFP viability control channel

Compound	AC50 [1]	AC50 [2]
CCOc1ccccc1C(=O)N[C@H](C(=O)OCc1cc(=O)oc2cc(C)ccc12)C(C)C	35.5 µM [rising, single point]	35.5 µM [rising, single point]
CNC(=O)[C@H]1O[C@@H](n2cnc3c(NCc4ccc(N)cc4)ncnc32)[C@H](O)[C@H]1O	7.08 µM [rising, partial curve, poor fit]	–
COc1ccc(Nc2nnc(SCC(=O)NC(=O)Nc3ccc4c(c3)OCCO4)s2)cc1	–	0.0224 µM [rising, full curve, poor fit]
COc1ccccc1NS(=O)(=O)c1cc(NC(=O)c2ccc3c(c2)OCCO3)ccc1C	3.55 µM [rising, partial curve]	11.2 µM [rising, partial curve]
CCCn1nnc(NCc2ccc(OCc3cccs3)c(OC)c2)n1	–	15.8 µM [rising, partial curve, poor fit]
CN1CCN(S(=O)(=O)c2cccc(C(=O)Nc3sc4c(c3-c3nc5ccccc5[nH]3)CCCC4)c2)CC1	–	8.91 µM [rising, partial curve, poor fit]
Cc1nc(NC(=O)c2ccc(OCC(C)C)cc2)sc1Cc1ccc2c(c1)OCO2	31.6 µM [rising, single point]	–
CN=C1CC(C)(C)CC(=O)/C1=C(/O)CCCN1C(=O)c2ccccc2C1=O	0.0178 µM [rising, full curve, poor fit]	0.398 µM [rising, full curve]
O=C(CCCCCn1c(=S)[nH]c2cc3c(cc2c1=O)OCO3)N1CCN(Cc2ccccc2)CC1	–	15.8 µM [rising, single point]
O=C(Nc1ccccc1)c1snc2c(=O)[nH]cnc12	0.631 µM [rising, partial curve, poor fit]	0.224 µM [rising, full curve, poor fit]
Cc1ccc(Cl)cc1NC(=O)COC(=O)Cn1cnc2c1c(=O)n(C)c(=O)n2C	–	35.5 µM [falling, partial curve]
O=C(NC(NC(=S)Nc1cccc(Cl)c1)C(Cl)(Cl)Cl)OCc1ccccc1 (stereo not given)	11.2 µM [rising, partial curve]	17.8 µM [rising, single point]
Nc1ccc(Nc2nc(-c3ccncc3)cs2)cc1	–	14.1 µM [rising, single point]
CCN(Cc1ccncc1)Cc1c(O)ccc2cc(Br)ccc12	0.282 µM [falling, single point]	–
NCCC[C@H](N)CC(=O)N[C@H]1CNC(=O)[C@@H]([C@@H]2C[C@H](O)N=C(N)N2)NC(=O)/C(=C/NC(N)=O)NC(=O)[C@@H](CO)NC(=O)[C@@H](CO)NC1=O	–	0.398 µM [rising, single point]
CCCCCCC(=O)N(O)C1CC(=O)N(Cc2ccccc2)C1=O (stereo not given)	–	11.2 µM [rising, partial curve]
CN(C)CCCC(C)(O)C(C)(C)c1ccccc1 (stereo not given)	–	0.00501 µM [falling, full curve, poor fit]
Oc1cccc(Nc2nc(NCC3CCCO3)c3ccccc3n2)c1 (stereo not given)	35.5 µM [rising, single point]	20 µM [rising, single point]

2 entries from above, with each value named.
Cc1ccc(Cl)cc1NC(=O)COC(=O)Cn1cnc2c1c(=O)n(C)c(=O)n2C
  AC50 [2]: 35.5 µM [falling, partial curve]
Oc1cccc(Nc2nc(NCC3CCCO3)c3ccccc3n2)c1 (stereo not given)
  AC50 [1]: 35.5 µM [rising, single point]; AC50 [2]: 20 µM [rising, single point]

Continued.

Compound	AC50 [1]	AC50 [2]
CCCCN(C)C(=O)c1ccc2c(c1)N(Cc1cccc(F)c1)C(=O)c1ccccc1S2	3.16 µM [rising, partial curve]	–
O=C(Nc1nccs1)c1cc(-c2ccco2)nc2ccccc12	8.91 µM [rising, partial curve, poor fit]	6.31 µM [rising, partial curve]
CC(C)c1ccc(-c2nnn(CCC#N)n2)cc1	–	3.16 µM [falling, partial curve, poor fit]
O=C(NC(=S)N1CCN(Cc2ccc3c(c2)OCO3)CC1)c1ccc(Cl)cc1	–	25.1 µM [rising, single point]
O=C(COC(=O)C1(c2ccc(F)cc2)CCCC1)N1CCN(C(=O)c2ccco2)CC1	–	20 µM [rising, partial curve]
O=C(COC(=O)c1ccco1)Nc1ccc2c(c1)OCCO2	–	3.16 µM [rising, single point]
CCOC(=O)c1ccc(Nc2nn3c(=O)c4ccccc4nc3s2)cc1	14.1 µM [falling, single point]	20 µM [falling, single point]
COc1cc(C(F)(F)F)nc2c(Br)c(C(C)(C)C)nn12	35.5 µM [falling, single point]	–
Cc1ccc(CNC(=O)c2ccc(CS(=O)(=O)Cc3ccc(C)cc3)o2)cc1	–	0.00316 µM [falling, full curve, poor fit]
O=C(c1cnc(N2CCN(c3ccccn3)CC2)c2ccccc12)N1CCN(c2cccc(Cl)c2)CC1	3.98 µM [falling, single point]	0.158 µM [falling, partial curve, poor fit]
O=C(Nc1nc(-c2ccccc2)cs1)c1cccnc1	–	31.6 µM [rising, single point]
COc1cc(/C=C2\CCc3ccccc3C2=O)cc(OC)c1OC	–	15.8 µM [rising, partial curve]
CCOCCCNC(=O)/C(C#N)=C/c1ccc(Cl)c([N+](=O)[O-])c1	–	35.5 µM [rising, single point]
Cc1cc2cc(CN(CC3CCCO3)C(=S)Nc3ccccc3)c(=O)[nH]c2cc1C (stereo not given)	–	7.94 µM [rising, single point]
O=C(CCC1N=C2c3ccccc3N=C(SCC(=O)Nc3ccc(F)cc3)N2C1=O)NCc1ccco1 (stereo not given)	35.5 µM [falling, single point]	35.5 µM [falling, partial curve, poor fit]
CCCCOc1ccc(-c2nnc(-c3ccncc3)o2)cc1	–	25.1 µM [rising, single point]
COc1cc2c(=O)n(Cc3ccco3)c(=O)n(CC(=O)c3cccc(Br)c3)c2cc1OC	–	0.0251 µM [falling, single point]
